Assay [1] has as its target huTRIMStop fused to lexA (human) (UniProt Q9C035). The assay can be described thus: yeast two-hybrid, β-galactosidase reporter.
Assay [2] has as its target GST-TRIM5αhu (glutathione S-transferase fusion with full-length human TRIM5α) (human) (UniProt Q9C035). Nature of the assay: title of the legend of FIGS. 9A-9B (yeast two-hybrid and GST pull-down from 293T cells).
The target is the same in assay [3]. Nature of the assay: GST pull-down on glutathione-Sepharose from cotransfected 293T cells, Western blot with anti-TRIM5. For orientation: In western blotting, separated proteins are transferred to a membrane and probed.

Protein sequences, listed by entry. Tags and fused reporters are not part of them. Lines headed by an entry give the natural chain unless they say otherwise; changes in a name come on top. Chains listed by the source or under a name are the forms on record and can include a tag or linker. Residues count along the entry.
UniProt Q9C035: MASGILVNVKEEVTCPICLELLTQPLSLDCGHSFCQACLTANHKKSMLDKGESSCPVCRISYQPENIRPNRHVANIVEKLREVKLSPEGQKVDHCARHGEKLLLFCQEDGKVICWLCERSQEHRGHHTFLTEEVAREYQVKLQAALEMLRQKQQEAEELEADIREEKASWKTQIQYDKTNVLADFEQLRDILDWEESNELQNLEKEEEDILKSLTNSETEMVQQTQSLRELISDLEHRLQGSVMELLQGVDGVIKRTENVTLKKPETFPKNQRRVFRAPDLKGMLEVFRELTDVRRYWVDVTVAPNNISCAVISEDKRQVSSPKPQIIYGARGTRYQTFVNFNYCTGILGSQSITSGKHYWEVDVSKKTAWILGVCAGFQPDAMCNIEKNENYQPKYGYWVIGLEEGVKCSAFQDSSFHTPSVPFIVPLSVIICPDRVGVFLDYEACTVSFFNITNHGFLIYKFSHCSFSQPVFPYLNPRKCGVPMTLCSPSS
huTRIMStop fused to lexA: residues 1-299 of Q9C035
GST-TRIM5αhu (glutathione S-transferase fusion with full-length human TRIM5α): residues 2-493 of Q9C035

These are yes or no findings as the source states them, for the method shown. For part of these data: Binding seen in cells or lysates may run through a third protein. Some binding calls cover weakened binding; strength is not graded here. For part of these data: Tags and fused reporters may be left off the sequences shown.

B1: TRIMStop expressed in fusion with the B42 activation domain (protein, not shown: large carriers)
chain: MASRILVNIKEEVTCPICLELLTEPLSLDCGHSFCQACITANHKKSMPHQGERSCPLCRISYSSENLRPNRHLVNIVERLREVMLSPEEGQKVDHCAHHGEKLVLFCQQDGNVICWLCERSQEHRGHQTFLVEEVAQKYREKLQVALEMMRQKQKDAEKLEADVREEQASWKIQIQNDKTNIMAEFKKRRDILDCEESKELQNLEKEEKNILKRLVQSENDMVLQTQSVRVLISDLEHRLQGSVMELLQGVDGVIKRIEKVTLQNPKTFLNEKRRIFQTPDLKGTLQVFKEPTEVQRYWDAAAWDLVASA
Turning to B1, in assay [1], the binding entry is reported as “binds”.

B2: TRIMStop (protein)
chain: MASRILVNIKEEVTCPICLELLTEPLSLDCGHSFCQACITANHKKSMPHQGERSCPLCRISYSSENLRPNRHLVNIVERLREVMLSPEEGQKVDHCAHHGEKLVLFCQQDGNVICWLCERSQEHRGHQTFLVEEVAQKYREKLQVALEMMRQKQKDAEKLEADVREEQASWKIQIQNDKTNIMAEFKKRRDILDCEESKELQNLEKEEKNILKRLVQSENDMVLQTQSVRVLISDLEHRLQGSVMELLQGVDGVIKRIEKVTLQNPKTFLNEKRRIFQTPDLKGTLQVFKEPTEVQRYWDAAAWDLVASA
As to B2, the binding result in assay [2] and in assay [3] was “binds” each time.
